Laboratory results reported in ChEMBL document CHEMBL4808148, “HDAC6 screening dataset using tau-based substrate in an enzymatic assay yields selective inhibitors and activators” (2021).
This list holds what a sample rich in strong results left over.

The compounds below were run against T1, Protein deacetylase HDAC6 (Homo sapiens) (UniProt Q9UBN7). Conditions: at 10 µM.
T1 sequence (whole entry): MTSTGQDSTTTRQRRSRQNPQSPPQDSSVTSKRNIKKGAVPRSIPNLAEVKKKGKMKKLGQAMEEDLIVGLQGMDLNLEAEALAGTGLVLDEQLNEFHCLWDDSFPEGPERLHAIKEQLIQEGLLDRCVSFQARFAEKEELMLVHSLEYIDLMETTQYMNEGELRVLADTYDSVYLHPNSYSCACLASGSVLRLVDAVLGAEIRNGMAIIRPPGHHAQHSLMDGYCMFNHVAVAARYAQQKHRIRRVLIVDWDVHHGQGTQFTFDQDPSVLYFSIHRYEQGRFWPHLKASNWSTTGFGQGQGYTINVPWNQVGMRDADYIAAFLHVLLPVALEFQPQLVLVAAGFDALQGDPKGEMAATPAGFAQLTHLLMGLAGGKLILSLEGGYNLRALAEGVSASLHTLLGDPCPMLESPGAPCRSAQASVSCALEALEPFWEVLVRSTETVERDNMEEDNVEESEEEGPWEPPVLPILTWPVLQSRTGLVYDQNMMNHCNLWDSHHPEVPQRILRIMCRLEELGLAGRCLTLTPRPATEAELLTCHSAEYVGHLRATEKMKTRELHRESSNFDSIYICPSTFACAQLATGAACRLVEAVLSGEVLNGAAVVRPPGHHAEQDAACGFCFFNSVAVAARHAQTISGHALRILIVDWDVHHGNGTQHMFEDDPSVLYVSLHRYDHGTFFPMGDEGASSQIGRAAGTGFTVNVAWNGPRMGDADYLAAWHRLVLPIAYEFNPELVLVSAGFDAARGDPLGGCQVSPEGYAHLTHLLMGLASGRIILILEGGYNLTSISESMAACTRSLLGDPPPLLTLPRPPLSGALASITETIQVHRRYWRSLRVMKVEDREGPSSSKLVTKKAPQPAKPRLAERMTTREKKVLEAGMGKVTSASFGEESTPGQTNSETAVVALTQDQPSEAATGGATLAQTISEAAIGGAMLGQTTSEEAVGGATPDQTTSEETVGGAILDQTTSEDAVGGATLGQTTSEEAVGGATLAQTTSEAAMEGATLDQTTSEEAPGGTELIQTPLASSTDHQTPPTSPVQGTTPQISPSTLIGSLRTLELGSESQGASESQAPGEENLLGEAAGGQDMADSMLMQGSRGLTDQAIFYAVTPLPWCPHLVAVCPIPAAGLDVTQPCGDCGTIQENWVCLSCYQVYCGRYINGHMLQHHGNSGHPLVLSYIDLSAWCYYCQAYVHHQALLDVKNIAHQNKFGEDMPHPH
For `COc1cc(N2CCN(C(C)=O)CC2)ccc1Nc1ncc(Cl)c(Nc2ccc(N3CCN(C(C)=O)CC3)cc2OC)n1`, the inhibition was 10.8%.
